According to patent US11400078B2, “Methods of treatment for cholestatic and fibrotic diseases” (Genfit, priority 2016, dated 2022):
At least one structure is not confirmed: it was looked up by name or label, or the drawing left a doubt.

System: TGFβ1-induced expression of α-SMA protein in human HSC
Test: α-SMA ELISA in TGFβ1-activated human primary hepatic stellate cells (single agents and NTZ/statin or TZ/statin combination matrix, EOB/EOHSA)
Format: cell-based
Protocol: After 48 hours of incubation, the expression of α-SMA was measured by ELISA. […] Data are presented as mean (triplicates)±standard deviation (SD). Statistical analyses were performed by one-way ANOVA followed by Bonferroni post-hoc tests, using Sigma Plot 11.0 software. […] After 48 hours of incubation, the expression of α-SMA was measured by ELISA. […] Data are presented as mean (triplicates)±standard deviation (SD). Statistical analyses were performed by one-way ANOVA followed by Bonferroni post-hoc tests, using Sigma Plot 11.0 software. […] Combinations were tested in a dose-response matrix format and analyzed according to the excess over Bliss (EOB) additivism model. Dilution series of NTZ (column) and pitavastatin (row) were prepared, including their respective DMSO controls. […] Data are presented as mean of quadruplicates. (B) EOB scores were calculated as described in Materials and Methods. […] The level of α-SMA was measured using a Sandwich ELISA. […] Expected Bliss additivism score (E) was firstly determined by the equation: E=(A+B)-(A×B) where A and B are the percentage inhibitions converted into fractions within a range of 0 to 1 of NTZ (A) and a given statin (B) at a given dose. […] For each product combination (NTZ+statin), an additional total Bliss score was calculated by summation of all EOB. […]

CC(=O)Oc1ccccc1C(=O)Nc1ncc([N+](=O)[O-])s1 [NTZ, [2-[(5-nitro-1,3-thiazol-2-yl)carbamoyl]phenyl]ethanoate]
level of α-SMA in TGFβ-induced HSCs: dose-dependently reduced
